{"source": "patent US20150030566A1", "about": "“ANTIMICROBIAL PEPTIDE COMPOSITIONS FOR PLANTS” (Stellenbosch University, priority 2012, published 2015)", "key": {"[1]": {"tested_on": "grapevine sticklings", "test": "Grape stickling field trials", "assay_type": "in vivo", "settings": "30 mg/L, treated after grafting; vs control sticklings"}, "[2]": {"tested_on": "African daisy (Gerbera hybrid)", "test": "Cut flower trials, Gerbera", "assay_type": "in vivo", "settings": "35 mg/L in tap water", "method": "Water uptake was initially better than observed for a commercial product for cut-flower preservation (FIG. 4A).\nCut flower trials on mini hybrids of the African daisy (Gerbera hybrid) and blue larkspur (Delphinium hybrid) were conducted on 3-day old flowers. Flowers were prepared by cutting 3-5 cm of each stem and each placed separately in a measuring flask with 100 mL containing either no additive, Trc mix (35 mg/L for Gerbera and 25 mg/l for Delphinium), GS (35 mg/L for Gerbera and 25 mg/L for Delphinium), Trc mix+GS (combined 70 mg/L for Gerbera and combined 50 mg/L for Delphinium) or commercial additive for flower preservation. Flowers (6-12 per trial) were kept in a room with both natural and fluorescent lighting (16 hours light/day) at 22±1° C. The volume of water was monitored every 24 hours and noted for each flower.\nFlower condition was rated from 0 to 5, with 0=dead, 1=flower petals dehydrated, closed and drooping, 2=flower still partially open but dehydrated and drooping, 3=flower starts drooping, petals soft, 4=some petals becoming soft, flower still in good condition and 5=flower is in pristine condition with taught petals and stem/leaves."}}, "note": "Some results were stated once for a whole list of compounds, not compound by compound. Residues, ends and D or L forms follow the SMILES beside them.", "data": [{"smiles": "CC(C)C[C@@H]1NC(=O)[C@H](CCCN)NC(=O)[C@H](C(C)C)NC(=O)C2CCCN2C(=O)[C@@H](Cc2ccccc2)NC(=O)[C@H](CC(C)C)NC(=O)[C@H](CCCN)NC(=O)[C@H](C(C)C)NC(=O)C2CCCN2C(=O)[C@@H](Cc2ccccc2)NC1=O", "note": "(some centres unmarked) [GS, Cyclo-(VOLfPVOLfP)] (HELM PEPTIDE1{L.[dF].[O=C(C1CCCN1[*:1])[*:2]].V.[Orn].L.[dF].[O=C(C1CCCN1[*:1])[*:2]].V.[Orn]}$PEPTIDE1,PEPTIDE1,1:R1-10:R2$$$V2.0)", "values": [{"measurement": "higher survival of 2 month old sticklings in the vineyard", "setting": "[1]", "value": "> 15", "unit": "%"}, {"measurement": "water uptake improvement above flowers in water alone", "setting": "[2]", "value": "> 45", "unit": "%"}]}]}
